Taken from: PubChem BioAssay AID1259254 (NCATS, 2017)
Test: 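Finding genes that stop cells copying their DNA twice in one cycle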 (primary screen). Cell system: human HCT116 colorectal cancer cells. Reagent: single siRNA against human genes. Time to read-out: 3 days. Measurement: 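Imaged Hoechst DNA stain sorts each cell into a cycle phase by DNA amount; per plate, G2 fraction set to 0% for non-targeting and 100% for GMNN siRNA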. Reading the numbers: G2 robust z-score and G2 cells, % of GMNN control: higher = more G2 cells, more excess DNA replication; raw share of cells in G2: higher = larger share of cells with G2 DNA content. Hit rule: 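An siRNA counts as active if its G2 robust z-score lies at least 5 MADs above the screen median; here such calls match roughly 38% of GMNN control or more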.
The deposit covers about 59,000 reagents; below is a random part of them. About 1,550 of them (2.6%) were called active. 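G2 share is only a proxy for re-replication; each gene was hit by three separate siRNAs, and active genes were retested.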 Raw values are not corrected between plates. Unmarked entries are inactive. The numbers tell different reagents against one gene apart. The record does not give: the amount of reagent.

| gene | reagent no. | G2 robust z-score | G2 cells, % of GMNN control | raw share of cells in G2 (%) |
| --- | --- | --- | --- | --- |
| GRM8 (glutamate metabotropic receptor 8) | 1 | -1.2 | -5.45 | 3.89 |
| GRM8 (glutamate metabotropic receptor 8) | 2 | -0.73 | -2.17 | 3.76 |
| GRM8 (glutamate metabotropic receptor 8) | 3 | 1.35 | 12.4 | 7.09 |
| GGT1 (gamma-glutamyltransferase 1) | 1 | -0.586 | -1.16 | 5.16 |
| GGT1 (gamma-glutamyltransferase 1) | 2 | -0.154 | 1.88 | 5.57 |
| GGT1 (gamma-glutamyltransferase 1) | 3 | -0.878 | -3.21 | 2.71 |
| SMARCC1 (SWI/SNF related BAF chromatin remodeling complex subunit C1) | 1 | -0.255 | 1.17 | 6.08 |
| SMARCC1 (SWI/SNF related BAF chromatin remodeling complex subunit C1) | 2 | 0.882 | 9.18 | 7.69 |
| SMARCC1 (SWI/SNF related BAF chromatin remodeling complex subunit C1) | 3 | -1.12 | -4.9 | 2.34 |
| SERTAD1 (SERTA domain containing 1) | 1 | -1.09 | -4.69 | 3.79 |
| SERTAD1 (SERTA domain containing 1) | 2 | -0.393 | 0.204 | 3.7 |
| SERTAD1 (SERTA domain containing 1) | 3 | 3.56 | 28 | 12.7 |
| TTC39B (tetratricopeptide repeat domain 39B) | 1 | -1.04 | -4.35 | 2.04 |
| TTC39B (tetratricopeptide repeat domain 39B) | 2 | -0.509 | -0.614 | 2.75 |
| TTC39B (tetratricopeptide repeat domain 39B) | 3 | -0.0786 | 2.41 | 3.53 |
| CD1C (CD1c molecule) | 1 | -1.23 | -5.66 | 2.65 |
| CD1C (CD1c molecule) | 2 | -0.161 | 1.84 | 4.76 |
| CD1C (CD1c molecule) | 3 | 0.5 | 6.48 | 6.06 |
| ENO3 (enolase 3) | 1 | 3.18 | 25.3 | 14.4 |
| ENO3 (enolase 3) | 2 | -0.592 | -1.2 | 3.23 |
| ENO3 (enolase 3) | 3 | 5.07 (active) | 38.6 | 20 |
| TMEM47 (transmembrane protein 47) | 1 | 0.406 | 5.83 | 6.05 |
| TMEM47 (transmembrane protein 47) | 2 | 0.411 | 5.86 | 5.19 |
| TMEM47 (transmembrane protein 47) | 3 | -0.159 | 1.85 | 2.97 |
| ESD (esterase D) | 1 | 0.464 | 6.23 | 7.53 |
| ESD (esterase D) | 2 | -0.173 | 1.75 | 5.83 |
| ESD (esterase D) | 3 | -0.253 | 1.19 | 4.06 |
| FADD (Fas associated via death domain) | 1 | -0.504 | -0.58 | 4.87 |
| FADD (Fas associated via death domain) | 2 | -0.521 | -0.701 | 3.62 |
| FADD (Fas associated via death domain) | 3 | -0.381 | 0.286 | 3.45 |

Quoted from above (2 entries):
| gene | reagent no. | G2 robust z-score | G2 cells, % of GMNN control | raw share of cells in G2 (%) |
| --- | --- | --- | --- | --- |
| CD1C (CD1c molecule) | 1 | -1.23 | -5.66 | 2.65 |
| CD1C (CD1c molecule) | 2 | -0.161 | 1.84 | 4.76 |
